# Test results as given in PubChem BioAssay AID2685 (National Center for Advancing Translational Sciences (NCATS), 2010).
# Some of the results follow. Shown are side measurements of this screen, not its main read-out; they come without a call. Most of these compounds were active or inconclusive in the main read-out, so they are no random draw. Potencies come from curve fits of mixed quality, noted in brackets.
# Assay: qHTS Assay for Lipid Storage Modulators in Drosophila S3 Cells;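 on cell number change: cells counted by Cell Tracker Red CMTPX staining in the red channel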
# Details: BODIPY lipid droplet fluorescence, 18-24 h; for cell number change: measured here: cell count max response, cells fed with added oleic acid
# How it was run: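 Drosophila S3 cells got compounds at several concentrations plus oleic acid (400 uM solution). Laser-scanning cytometry with 488 nm excitation read lipid droplets at 500-530 nm and cells at 575-640 nm. Percent activity was relative to 20 uM Triacsin C.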
# [1] = measured here: lipid fluorescence (Fed channel) AC50, cells fed with added oleic acid
# [2] = measured here: cell number channel AC50, cells fed with added oleic acid
Structure (SMILES),cell number change,AC50 [1],AC50 [2]
COc1cccc(-n2c(SCC(=O)NCC3CCCO3)nc3c([nH]c4ccccc43)c2=O)c1 (centres undefined),4.53%,"32.6 µM [falling, single point]",
CN(CCNC(=O)C1CCC(=O)N(Cc2cccc(F)c2)C1)CCc1ccccc1 (centres undefined),16.2%,,"4.61 µM [rising, single point]"
CCCOn1c(OCC(C)C)nc2ccccc2c1=O,-31.8%,"6.51 µM [rising, single point]","16.4 µM [falling, single point]"
Cc1nc(/C=[N+](\[O-])C(C)(C)/C=N/O)n(O)c1C,-13%,"29.1 µM [falling, single point]",
CCCc1nc2sc3c(c2c(=O)n1NC(=O)CCCl)CCCC3,-36.9%,"4.11 µM [falling, full curve]","4.61 µM [falling, full curve]"
CCc1nnc(NC(=O)CCC(=O)N2CCN(Cc3ccc(C)cc3C)CC2)s1,20.5%,"18.4 µM [falling, single point]",
COC(=O)C(C)n1cnc2c(nnn2Cc2ccc(Cl)cc2)c1=O (centres undefined),-42.9%,"0.517 µM [rising, single point]",
O=C(CNC(=O)c1cc(S(=O)(=O)N2CCCCC2)ccc1N1CCOCC1)Nc1ccc(F)c(F)c1,,"0.92 µM [rising, full curve, poor fit]",
O=C(N/N=C/c1ccsc1)c1ccc2ccccc2n1,,,"4.61 µM [rising, single point]"
Cc1ccc(CN2CC(C(=O)OCc3ccccc3Cl)CC2=O)cc1 (centres undefined),,"6.51 µM [falling, single point]",
CCCC(C)c1nnc(NC(=O)CN2C(=O)c3ccccc3C2=O)s1 (centres undefined),-37.3%,"32.6 µM [falling, single point]","32.6 µM [falling, single point]"
Clc1ccc(-c2nnc3sc(Cc4cccs4)nn23)c(Cl)c1,-10.5%,"4.11 µM [rising, single point]",
O=C(Nc1ccc(NC(=O)c2ccco2)cc1)c1ccco1,-3.78%,,
CCCc1cc(=O)[nH]c(SCC(=O)Nc2sccc2C#N)n1,34.2%,,
CCn1c(C(=O)O)c(CC(=O)Nc2ccc(Br)cc2C)c2ccccc21,-43%,,"25.9 µM [falling, single point]"
CCOC(=O)N1CCN(S(=O)(=O)c2ccc(C)c(C(=O)NC3CCCCC3)c2)CC1,,,"0.92 µM [rising, partial curve]"
O=C1CSC(=S)N1/N=C/c1cc(Br)ccc1O,1.68%,,
C/C(=N\NC(=O)c1c(Cl)c(C)nn1C)c1cccc(NC(=O)COc2ccc(Cl)cc2)c1,19.9%,,
COc1cccc(NC(=O)COC(=O)c2nc(Cl)ccc2Cl)c1,,"0.00461 µM [falling, full curve, poor fit]",
COc1cc2c(cc1NC(=O)COC(=O)[C@@H](NC(=O)c1ccccc1F)C(C)C)oc1ccccc12,-12.2%,"10.3 µM [falling, single point]",
Cc1ccc(NC(=O)c2cccs2)cc1NC(=O)c1cccnc1,-57.1%,"29.1 µM [falling, single point]","29.1 µM [falling, single point]"

Structure (SMILES),cell number change,AC50 [1],AC50 [2]
COC(=O)c1sc(C(C)(C)C)cc1CSc1ccccc1,34%,"9.2 µM [rising, partial curve, poor fit]",
CC(C)CC(=O)N1CCN(S(=O)(=O)c2ccc3ccccc3c2)CC1,-49.9%,,"29.1 µM [falling, single point]"
Cc1c(OCc2nn[nH]n2)ccc2c3c(c(=O)oc12)CCC(C)C3 (centres undefined),-50.5%,"9.2 µM [falling, partial curve, poor fit]","29.1 µM [falling, single point]"
Cn1c(=O)n(C)c2cc(NC(=O)c3cc4ccccc4o3)ccc21,-12.9%,"0.116 µM [rising, full curve, poor fit]",
COC(=O)c1ccc(CNC(=O)C(NC(=O)c2ccco2)C(C)C)cc1 (centres undefined),25.7%,"20.6 µM [rising, partial curve]",
Cc1ccc2ccc3cccc4ccc1c2c34,-44.5%,"9.2 µM [falling, single point]","10.3 µM [falling, single point]"
Cc1cccc(NC(=O)CSc2nc3ccccc3c3nc(CCc4c(C)n[nH]c4C)nn23)c1,-31.3%,,"29.1 µM [falling, single point]"
O=C(CSc1n[nH]c(-c2ccncc2)n1)Nc1ccc(Br)cc1,-20.3%,,"0.00411 µM [falling, full curve, poor fit]"
CC(C)C(C(=O)NCc1ccco1)N(CC1CCCO1)C(=O)CNS(=O)(=O)c1ccc(F)cc1 (centres undefined),-7.69%,"0.58 µM [rising, partial curve]",
O=c1[nH]c(C2CCN(S(=O)(=O)c3ccc(C(F)(F)F)cc3)CC2)nc2c1nnn2Cc1ccc(F)cc1,13.9%,"0.58 µM [rising, single point]",
Cc1ccccc1C(=O)Nc1cccc(N)c1,-0.674%,,
CN1C(=O)S/C(=C/c2ccc(OCc3cccc(C(=O)O)c3)cc2)C1=O,25.9%,"5.8 µM [rising, single point]",
COc1ccc(-c2cc(C)no2)cc1S(=O)(=O)Nc1cccc(CN2CCCC2)c1,,"29.1 µM [rising, single point]",
O=C(CN1C(=O)NC2(CCCC2)C1=O)OCCOc1cccc(Br)c1,,,"4.11 µM [rising, single point]"
COCCN1CCN(Cc2cn(C)nc2-c2cccc(Cl)c2)CC1,47.7%,"0.13 µM [rising, full curve, poor fit]","20.6 µM [rising, partial curve]"
COc1ccccc1-c1cc(C(=O)NCCc2ccccc2)no1,,"7.31 µM [rising, partial curve]",
Nc1nc(=S)c2ncn(C3CCCC3)c2[nH]1,2.77%,,"0.13 µM [falling, full curve, poor fit]"
CCOC(=O)N1CCN(C(=O)c2ccc(NS(=O)(=O)c3ccc4[nH]c(=O)[nH]c4c3)cc2)CC1,-9%,,
Cc1ccc(C(=O)OCC(=O)N2CCOCC2)c(C)c1,0.901%,"0.13 µM [falling, full curve, poor fit]",
COc1cc([N+](=O)[O-])ccc1NC(=O)Nn1cnnc1,26.7%,"4.47 µM [rising, partial curve]",
CCCCC(=O)OCC(=O)N1N=C(c2c[nH]c3ccccc23)C(O)C1c1ccc(OC)cc1 (centres undefined),-42.4%,"29.1 µM [falling, single point]","20.6 µM [falling, single point]"

Structure (SMILES),cell number change,AC50 [1],AC50 [2]
Cc1c(C#N)c(N=CN(C)C)c(C(=O)c2ccc(Br)cc2)n1-c1ccccc1,19.4%,,
Cc1ccc(-n2c(SCC(=O)NCCC3=CCCCC3)nc3n[nH]c(C)c3c2=N)cc1Cl,4.96%,"0.58 µM [rising, single point]",
COC(=O)c1cc(COC(=O)c2cccnc2SC)oc1C,-1.21%,"7.31 µM [rising, partial curve]",
CSc1ncccc1C(=O)NCCc1ccccc1,-10.5%,,
COc1ccc(C(=O)NCCCn2ccnc2)cc1,-33.2%,,"14.6 µM [falling, partial curve, poor fit]"
Cc1ccc(C2=NN(C(=O)CCC(=O)O)C(c3cccc([N+](=O)[O-])c3)C2)cc1 (centres undefined),-20.1%,"6.51 µM [falling, single point]",
COC(=O)COc1ccc(S(=O)(=O)Nc2ccc3c(c2)OCCO3)cc1Cl,5.9%,"5.17 µM [falling, partial curve]","0.517 µM [falling, partial curve]"
C=CCn1c(CNc2ccc(C)cc2)nnc1SCC(=O)N/N=C/c1ccc(O)cc1,-1.03%,"1.16 µM [rising, single point]",
Cc1ccc(NC(=S)Nc2ccc3nc(-c4ccccn4)c(-c4ccccn4)nc3c2)cc1C,14.3%,"0.92 µM [rising, full curve, poor fit]",
CCOC(=O)c1ccc(OCC(=O)c2ccc(O)cc2O)cc1,-0.101%,"0.00651 µM [falling, full curve, poor fit]",
CCN(CC(=O)Nc1c(F)cccc1F)C(=O)Cc1sc(C)nc1-c1ccc(F)cc1,65%,,"9.2 µM [rising, partial curve]"
CCSc1cc(N2CCCC2)nc(-c2cccc(C)c2)n1,2.22%,"6.51 µM [rising, single point]",
OCC#Cc1cnc2ccccc2c1,87.3%,,"29.1 µM [rising, single point]"
COc1ccc(C(=O)NC(C)CCc2ccccc2)c(O)c1 (centres undefined),115%,,"3.26 µM [falling, single point]"
O=C(NC1CCCN(Cc2ccc(Cl)cc2)C1)c1cccc(N2CCCC2=O)c1 (centres undefined),15.5%,"0.92 µM [rising, full curve, poor fit]",
CC(C)n1c(CNC(=O)c2ccccc2)nc2ccccc21,,"3.66 µM [rising, partial curve]",
Cc1ccc(NC(=O)c2ccccc2F)nc1,,"2.31 µM [rising, partial curve]",
Cc1noc(C)c1COc1ccccc1C(=O)NNC(=O)c1ccc(F)cc1,14.3%,,
CCOC(=O)C1CCN(C(=O)COc2ccc([N+](=O)[O-])cc2)CC1,-6.77%,"6.51 µM [rising, single point]",
c1nc(NCCN2CCOCC2)c2sc3nc(N4CCOCC4)c4c(c3c2n1)CCC4,-2.07%,"2.31 µM [rising, single point]",

# Quoted from the entries so far (15 entries):
Structure (SMILES),cell number change,AC50 [1],AC50 [2]
COC(=O)c1cc(COC(=O)c2cccnc2SC)oc1C,-1.21%,"7.31 µM [rising, partial curve]",
CSc1ncccc1C(=O)NCCc1ccccc1,-10.5%,,
COc1ccc(C(=O)NCCCn2ccnc2)cc1,-33.2%,,"14.6 µM [falling, partial curve, poor fit]"
Cc1ccc(C2=NN(C(=O)CCC(=O)O)C(c3cccc([N+](=O)[O-])c3)C2)cc1 (centres undefined),-20.1%,"6.51 µM [falling, single point]",
COC(=O)COc1ccc(S(=O)(=O)Nc2ccc3c(c2)OCCO3)cc1Cl,5.9%,"5.17 µM [falling, partial curve]","0.517 µM [falling, partial curve]"
C=CCn1c(CNc2ccc(C)cc2)nnc1SCC(=O)N/N=C/c1ccc(O)cc1,-1.03%,"1.16 µM [rising, single point]",
Cc1ccc(NC(=S)Nc2ccc3nc(-c4ccccn4)c(-c4ccccn4)nc3c2)cc1C,14.3%,"0.92 µM [rising, full curve, poor fit]",
CCOC(=O)c1ccc(OCC(=O)c2ccc(O)cc2O)cc1,-0.101%,"0.00651 µM [falling, full curve, poor fit]",
CCN(CC(=O)Nc1c(F)cccc1F)C(=O)Cc1sc(C)nc1-c1ccc(F)cc1,65%,,"9.2 µM [rising, partial curve]"
CCSc1cc(N2CCCC2)nc(-c2cccc(C)c2)n1,2.22%,"6.51 µM [rising, single point]",
OCC#Cc1cnc2ccccc2c1,87.3%,,"29.1 µM [rising, single point]"
COc1ccc(C(=O)NC(C)CCc2ccccc2)c(O)c1 (centres undefined),115%,,"3.26 µM [falling, single point]"
O=C(NC1CCCN(Cc2ccc(Cl)cc2)C1)c1cccc(N2CCCC2=O)c1 (centres undefined),15.5%,"0.92 µM [rising, full curve, poor fit]",
CC(C)n1c(CNC(=O)c2ccccc2)nc2ccccc21,,"3.66 µM [rising, partial curve]",
Cc1ccc(NC(=O)c2ccccc2F)nc1,,"2.31 µM [rising, partial curve]",
